Several values for one entry are separate records, joined by “and”; a condition that tells them apart may be missing. Identical values can stand only once.
System: A549 tumor xenografts
Assay: titration of 14C-carboplatin radioactive dose, AMS signal to noise in tumor DNA
Type: in vivo, mice
Details: for Signal to Noise, Sample #1/#2: listed as 14C-carboplatin
[1] = 5,000 dpm/gm of body weight, total carboplatin at 2 mg/m^2
[2] = 10,000 dpm/gm of body weight, total carboplatin at 2 mg/m^2
[3] = 10,000 dpm/gm of body weight, total carboplatin at 200 mg/m^2

SMILES: N.N.O=C([O-])C1(C(=O)[O-])CCC1.[Pt+2] [carboplatin]
- Signal to Noise, Mean [1]: 0.19
- Signal to Noise, Sample #1/#2 [1]: 0.24 and 0.14
- Signal to Noise, Mean (5,000 dpm/gm of body weight, total carboplatin at 200 mg/m^2): 108
- Signal to Noise, Mean [2]: 1.23
- Signal to Noise, Sample #1/#2 [2]: 1.27 and 1.19
- Signal to Noise, Mean [3]: 40
- Signal to Noise, Sample #1/#2 [3]: 37.6 and 42.2
- Signal to Noise, Mean (50,000 dpm/gm of body weight, total carboplatin at 2 mg/m^2): 3.30
- Signal to Noise, Sample #1/#2 (50,000 dpm/gm of body weight, total carboplatin at 2 mg/m^2, tumor resected 4 hours): 3.37 and 3.22
- Signal to Noise, Mean (50,000 dpm/gm of body weight, total carboplatin at 200 mg/m^2): 589
